In patent US11648255B2, “Inhibitors for treatment of hematological malignancies” (Masarykova Univerzita, priority 2020, dated 2023):
At least one compound was matched to its structure with a doubt left.

What was measured:
[1] = test system: GAB1 protein in MEC1 cells; experiment: immunoblot of GAB1 protein during prolonged ibrutinib treatment in vitro; assay type: cell-based; conditions: ibrutinib 1 μM, 2 hours to 5 days
[2] = test system: phospho-AKT Ser473 in MEC1 cells; experiment: immunoblot of basal AKT phosphorylation during prolonged ibrutinib treatment in vitro; assay type: cell-based; conditions: ibrutinib 1 μM, 2 hours to 5 days

Compound: C=CC(=O)N1CCC[C@@H](n2nc(-c3ccc(Oc4ccccc4)cc3)c3c(N)ncnc32)C1 [ibrutinib]
- GAB1 protein level (FIG. 3A) [1]: accumulation of GAB1 protein
- basal AKT phosphorylation (FIG. 3A) [2]: restoration of basal AKT phosphorylation
